Here are results for one molecule from PMC12808100, “The non-catalytic DNA polymerase ε subunit is an NPF motif recognition protein” (Nature Communications, 2025).

One data set has as its system POLE2 E520A. In words: Proximity labeling MS, POLE2 E520A. The note with it: bait POLE2_E520A, spectral count.
Another data set has as its system POLE2 S522A. Kind of data set: Proximity labeling MS, POLE2 S522A. As to conditions: bait POLE2_S522A, spectral count.

B1: ABT1 (protein, UniProt Q9ULW3 1-272, looked up)
Activator of basal …: MEAEESEKAATEQEPLEGTEQTLDAEEEQEESEEAACGSKKRVVPGIVYLGHIPPRFRPLHVRNLLSAYGEVGRVFFQAEDRFVRRKKKAAAAAGGKKRSYTKDYTEGWVEFRDKRIAKRVAASLHNTPMGARRRSPFRYDLWNLKYLHRFTWSHLSEHLAFERQVRRQRLRAEVAQAKRETDFYLQSVERGQRFLAADGDPARPDGSWTFAQRPTEQELRARKAARPGGRERARLATAQDKARSNKGLLARIFGAPPPSESMEGPSLVRDS
Regarding B1, the Spec in the data set with POLE2 E520A (replicate 1) worked out at 14; with POLE2 E520A (replicate 2), 7; with POLE2 S522A (replicate 1), 12; in the data set on POLE2 S522A (replicate 2), 14.
